Patent publication US20240269278A1, “ANTI-CD47 ANTIBODY FOR COMBINED TREATMENT OF BLOOD TUMOR” (Nanjing Shunxin Pharmaceuticals Co., Ltd. of Chiatai …, priority 2021, published 2024)
These are yes or no findings as the source states them, for the method shown. Some binding calls cover weakened binding; strength is not graded here.

target: cynomolgus/rhesus macaque CD47 protein, His Tag (ACRObiosystems, Cat. No. CD7-C52H1) (cynomolgus monkey); assay: Biacore SPR

| binding | Binder |
| --- | --- |
| binds | Xi2H8 (antibody, human IgG4 S228P, kappa, V domains shown) VH: QVQLKESGPGLVAPSQSLSITCTVSGFSLTNYGVHWVRQPPGKGLEWLGIIWAGGSTNYNSALMSRLSISKDNSKSQVFLKMNSLQTDDTAMYYCARDDYASMDYWGQGTSVTVSS VL: DAFMTQTPLSLPVSLGDQASISCRSSQSLVHSNGNTYLHWYLQKPGQSPKLLIYKVSNRFSGVPDRFSGSGSGTDFTLKISRVEAEDLGVYFCSQSTHVPYTLGGGTKLEIKR |
| binds | Xi16E5 (antibody, human IgG4 S228P, kappa, V domains shown) VH: EVQLQQSGPELKKPGETVKISCKASGYTFTNYGMNWVKQVPGKGLKWMGWINTNTGEPTYAEEFKGRFAFSLETSARTAFLQINNLKNEDTATYFCTRFSHLRGPMDYWGQGASVTVSS VL: DAVMTQTPLSLPVSLGDQASISCRSSQSLVHSNGYTYLHWYLQKPGQSPKLLIYKVSNRFSGVPDRFSGSGSGTDFTLKISRLEAEDLGVYFCSQSTHVPPTFGGGTKLEIKR |
| binds | hz3F10-1.2 (antibody, human IgG4 S228P, kappa, V domains shown) VH: QVQLVQSGAEVKKPGSSVKVSCKASGYTFSRYWIEWVRQAPGQGLEWMGEFIPGSDTTNYAQKFQGRVTITAEISTNTAYMELSSLRSEDTAVYYCARGGLRRMDYWGQGTLVTVSS VL: DIQMTQSPSSLSASVGDRVTITCRASSSVSSTYLHWYQQKPGKAPKLLIYTTSTLASGVPSRFSGSGSGTDFTLTISSLQPEDFATYYCQQFSDSTWTFGQGTKLEIKR |
| binds | hz3F10-4.2 (antibody, human IgG4 S228P, kappa, V domains shown) VH: QVQLVQSGAEVKKPGSSVKVSCKASGYTFSRYWIEWVRQAPGQGLEWMGEFIPGSDTTNYAQKFQGRVTITAEISTNTAYMELSSLRSEDTAVYYCARGGLRRMDYWGQGTLVTVSS VL: DIQMTQSPSSLSASVGDRVTITCRASSSVSSTYLHWYQQKPGKAPKLLIYTTSTLASGVPSRFSGSGSGTSYTLTISSLQPEDFATYYCQQFSESTWTFGQGTKLEIKR |
| binds | hz3F10-6.2 (antibody, human IgG4 S228P, kappa, V domains shown) VH: QVQLVQSGAEVKKPGSSVKVSCKASGYTFSRYWIEWVRQAPGQGLEWMGEFIPGSDTTNYAQKFQGRVTITAEISTNTAYMELSSLRSEDTAVYYCARGGLRRMDYWGQGTLVTVSS VL: DIQMTQSPSSLSASVGDRVTITCRASSSVSSTYLHWYQQKPGKAPKLWIYTTSTLASGVPSRFSGSGSGTSYTLTISSLQPEDFATYYCQQFSESTWTFGQGTKLEIKR |
| binds | hz3F10-5.2 (antibody, human IgG4 S228P, kappa, V domains shown) VH: QVQLVQSGAEVKKPGSSVKVSCKASGYTFSRYWIEWVRQAPGQGLEWMGEFIPGSDTTNYAQKFQGRVTITAEISTNTAYMELSSLRSEDTAVYYCARGGLRRMDYWGQGTLVTVSS VL: DIQMTQSPSSLSASVGDRVTITCRASSSVSSTYLHWYQQKPGKAPKLWIYTTSTLASGVPSRFSGSGSGTSYTLTISSLQPEDFATYYCQQFSDSTWTFGQGTKLEIKR |
| binds | hz3F10-2.2 (antibody, human IgG4 S228P, kappa, V domains shown) VH: QVQLVQSGAEVKKPGSSVKVSCKASGYTFSRYWIEWVRQAPGQGLEWMGEFIPGSDTTNYAQKFQGRVTITAEISTNTAYMELSSLRSEDTAVYYCARGGLRRMDYWGQGTLVTVSS VL: DIQMTQSPSSLSASVGDRVTITCRASSSVSSTYLHWYQQKPGKAPKLLIYTTSTLASGVPSRFSGSGSGTDFTLTISSLQPEDFATYYCQQFSESTWTFGQGTKLEIKR |
| binds | Xi3F10 (antibody, human IgG4 S228P, kappa, V domains shown) VH: EVQLQQSVAELMKPGASVKIYCKATGYTFSRYWIEWVKQRPGHGLEWIGEFIPGSDTTNFNEKFKGKATFTAEISSNTAYMQLSSLTSEDSAVYFCARGGLRRMDYWGQGTSVTVSS VL: DIVMTQTPAIMSASPGEKVTMTCRASSSVSSTYLHWYQQKSGASPKLWIYTTSTLASGVPARFSGSGSGTSYSLTISSVEAEDAATYYCQQFSDSTWTFGGGTKLEIKR |
| binds | hz14A9-2.3 (antibody, human IgG4 S228P, kappa, V domains shown) VH: QVQLVQSGAEVKKPGASVKVSCKVSGFNIEDDYIEWVRQAPGQGLEWMGRIDPANDKTKYAQKFQGRVTMTGDTSTNTVYMELSSLRSEDTAVYYCARPGLRRYYSMDYWGQGTLVTVSS VL: DIQMTQSPSSLSASVGDRVTITCKASENVVSYVSWYQQKPGKAPKLLIYGASNRYTGVPSRFIGSGSSTDFTLTISSLQPEDFATYYCGQSYSYPLTFGQGTKLEIKR |
| binds | hz14A9-2.4 (antibody, human IgG4 S228P, kappa, V domains shown) VH: QVQLVQSGAEVKKPGASVKVSCKVSGFNIEDDYIEWVRQAPGQGLEWMGRIDPANDKTKYAQKFQGRVTMTGDTSTNTVYMELSSLRSEDTAVYYCTRPGLRRYYSMDYWGQGTLVTVSS VL: DIQMTQSPSSLSASVGDRVTITCKASENVVSYVSWYQQKPGKAPKLLIYGASNRYTGVPSRFIGSGSSTDFTLTISSLQPEDFATYYCGQSYSYPLTFGQGTKLEIKR |
| binds | Xi14A9 (antibody, human IgG4 S228P, kappa, V domains shown) VH: EVQLQQSGAEVARPGASVKLSCTVSGFNIEDDYIEWVKQRPEQGLEWIGRIDPANDKTKYAPKFQDKATITGDTSSNTAYLQLSSLTSEDTAVYYCTRPGLRRYYSMDYWGQGTSVTVSS VL: NIVLTQSPKSMSMSVGERVTLSCKASENVVSYVSWYQQKPEQSPKLLIYGASNRYTGVPDRFIGSGSSTDFTLIISSFQPEDLADYHCGQSYSYPLTFGAGTKLELKR |
